{"source": "PubChem BioAssay AID1671195 (Yale University, 2021)", "assay": "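Genes whose knockdown alters LDL uptake in liver cancer cells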 (primary screen)", "system": "human Huh7 hepatoma cells", "knock-down reagent": "siRNA pool against human genes, 18 nM", "timing": "about 2 to 2.5 days of knockdown, then 8 h LDL uptake", "treatment": "DiI-labelled LDL at 30 µg/ml for 8 h, in lipoprotein-deficient serum medium", "measurement": "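Fluorescent LDL signal imaged in cells, scaled to the plate median, robust z-score for each replicate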", "reading the numbers": "robust z-score: higher = more LDL uptake after knockdown", "rule for the call": "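a gene counts as active if at least two replicate z-scores exceed ±2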", "note": "This is an unselected part of about 22,000 deposited reagents. Of all reagents, about 1,510 (6.9%) are marked active. 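Active includes knockdowns raising or lowering LDL uptake; positive z-scores mean more uptake, negative mean less.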 Unmarked entries are inactive."}
{"gene":"LOC440583 (retired record)","robust z-score, replicate 1":1.86,"robust z-score, replicate 2":1.1,"robust z-score, replicate 3":2.35}
{"gene":"LOC390508 (retired record)","robust z-score, replicate 1":0.935,"robust z-score, replicate 2":0.602,"robust z-score, replicate 3":1.06}
{"gene":"EFNA5","robust z-score, replicate 1":-0.511,"robust z-score, replicate 2":-0.204,"robust z-score, replicate 3":-0.481}
{"gene":"ALKBH2","robust z-score, replicate 1":1.7,"robust z-score, replicate 2":1.09,"robust z-score, replicate 3":1.37}
{"gene":"CA12","robust z-score, replicate 1":1.59,"robust z-score, replicate 2":1.48,"robust z-score, replicate 3":0.975}
{"gene":"LOC440852 (retired record)","robust z-score, replicate 1":0.0151,"robust z-score, replicate 2":-0.0658,"robust z-score, replicate 3":-0.173}
{"gene":"CIB3","robust z-score, replicate 1":0.042,"robust z-score, replicate 2":0.46,"robust z-score, replicate 3":0.574}
{"gene":"HNRNPA2B1","robust z-score, replicate 1":0.254,"robust z-score, replicate 2":0.127,"robust z-score, replicate 3":0.182}
{"gene":"EMC2","robust z-score, replicate 1":0.0598,"robust z-score, replicate 2":2.2,"robust z-score, replicate 3":0.246}
{"gene":"NPC2","robust z-score, replicate 1":0.771,"robust z-score, replicate 2":-0.606,"robust z-score, replicate 3":-0.428}
{"gene":"CCP110","robust z-score, replicate 1":0.493,"robust z-score, replicate 2":0.465,"robust z-score, replicate 3":-1.47}
{"gene":"C1orf185","robust z-score, replicate 1":"3.33 (active)","robust z-score, replicate 2":2.69,"robust z-score, replicate 3":3.32}
{"gene":"CD6","robust z-score, replicate 1":0.352,"robust z-score, replicate 2":0.886,"robust z-score, replicate 3":0.853}
{"gene":"SIRT5","robust z-score, replicate 1":-0.425,"robust z-score, replicate 2":-0.28,"robust z-score, replicate 3":0.182}
{"gene":"FAM133A","robust z-score, replicate 1":"2.05 (active)","robust z-score, replicate 2":1.7,"robust z-score, replicate 3":2.06}
{"gene":"LINC02112","robust z-score, replicate 1":0.178,"robust z-score, replicate 2":0.641,"robust z-score, replicate 3":0.687}
{"gene":"LOC440089 (retired record)","robust z-score, replicate 1":"3.56 (active)","robust z-score, replicate 2":3.08,"robust z-score, replicate 3":2.95}
{"gene":"CD163L1","robust z-score, replicate 1":-0.53,"robust z-score, replicate 2":0.105,"robust z-score, replicate 3":-0.61}
{"gene":"LOC401620 (retired record)","robust z-score, replicate 1":0.945,"robust z-score, replicate 2":0.335,"robust z-score, replicate 3":0.359}
{"gene":"KCTD18","robust z-score, replicate 1":0.52,"robust z-score, replicate 2":-0.399,"robust z-score, replicate 3":0.674}
{"gene":"UBAP2L","robust z-score, replicate 1":-1.08,"robust z-score, replicate 2":-0.0142,"robust z-score, replicate 3":-1.7}
{"gene":"LOC100289495","robust z-score, replicate 1":0.931,"robust z-score, replicate 2":0.711,"robust z-score, replicate 3":0.732}
{"gene":"ARLN","robust z-score, replicate 1":-1.44,"robust z-score, replicate 2":-1.39,"robust z-score, replicate 3":-1.27}
{"gene":"CABLES1","robust z-score, replicate 1":1.01,"robust z-score, replicate 2":-0.621,"robust z-score, replicate 3":0.449}
{"gene":"PCDHGA3","robust z-score, replicate 1":0.789,"robust z-score, replicate 2":0.48,"robust z-score, replicate 3":0.427}
{"gene":"ENTR1","robust z-score, replicate 1":-0.206,"robust z-score, replicate 2":0.468,"robust z-score, replicate 3":-0.918}
{"gene":"KDM5B","robust z-score, replicate 1":-1.37,"robust z-score, replicate 2":-1.3,"robust z-score, replicate 3":-1.22}
{"gene":"HOXC12","robust z-score, replicate 1":0.483,"robust z-score, replicate 2":-0.663,"robust z-score, replicate 3":0.419}
{"gene":"LINC00964","robust z-score, replicate 1":0.595,"robust z-score, replicate 2":0.585,"robust z-score, replicate 3":0.23}
{"gene":"H3-3A","robust z-score, replicate 1":1.18,"robust z-score, replicate 2":-0.0982,"robust z-score, replicate 3":0.934}

Reformatted: entries from further up.
gene,"robust z-score, replicate 1","robust z-score, replicate 2","robust z-score, replicate 3"
LOC100289495,0.931,0.711,0.732
ARLN,-1.44,-1.39,-1.27
CABLES1,1.01,-0.621,0.449
